Experimental data: PubChem BioAssay AID743454 (Peter MacCallum Cancer Centre, 2014)
Here is a random part of about 18,000 reagents tested. In the full data, 450 (2.5%) were called active. 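Single biological run; no consistent viability z cut-off exists, so the class columns, not z-scores, define the calls.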 Entries without a mark were called inactive.

Aim: 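Genes whose loss kills vorinostat-resistant colon cancer cells under vorinostat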 (primary screen)
Cell system: human HCT116-VR colon cancer cells, selected for vorinostat resistance
Reagents: siRNA pool against human genes, 40 nM siRNA pool
Time to read-out: vorinostat for 24 h, read-out about 72 h after transfection
Treatment: vorinostat at 2.5 µM final
Measurement: 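Two measures, CellTiter-Fluor viability and luminescent caspase 3/7 activity, each as fold change against same-plate mock wells, mean of duplicates, then screen-wide robust z-score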
Scale: viability robust z-score: higher = more viable cells than screen typical; caspase robust z-score: higher = more caspase 3/7 activity than screen typical
Call rule: 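Hits are knock-downs in viability class RV1/RV2 or caspase class CA1/CA2, excluding ones that killed cells in the no-drug cell-count arm; hits then retested with single siRNAs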

After knock-down of HSD11B1L (GeneID 374875), the screen gave viability hit class no change; caspase hit class no change; viability robust z-score -0.47; caspase robust z-score 0.88. Depletion of HTR4 (GeneID 3360) gave: viability hit class no change; caspase hit class no change; viability robust z-score 0.81; caspase robust z-score -0.52. Silencing of LRRC20 (GeneID 55222) came out at: viability hit class no change; caspase hit class no change; viability robust z-score -0.68; caspase robust z-score 2.63. For LY6H (GeneID 4062), the entry reads viability hit class no change; caspase hit class no change; viability robust z-score 0.74; caspase robust z-score 0.58. KCNK15 (GeneID 60598) scored viability hit class no change; caspase hit class no change; viability robust z-score -0.66; caspase robust z-score 4.36. Silencing of C1QL3 (GeneID 389941) gave: viability hit class no change; caspase hit class no change; viability robust z-score -0.46; caspase robust z-score -0.09.

For SLC22A15 (GeneID 55356), the values are viability hit class no change; caspase hit class no change; viability robust z-score -1.15; caspase robust z-score 1.23. EIF1AD (GeneID 84285) showed viability hit class no change; caspase hit class no change; viability robust z-score 1.38; caspase robust z-score 0.66. Silencing of FTHL17 (GeneID 53940) came out at: viability hit class no change; caspase hit class no change; viability robust z-score 0.48; caspase robust z-score 1.24. With knock-down of NAP1L3 (GeneID 4675), the screen gave viability hit class no change; caspase hit class no change; viability robust z-score 0.49; caspase robust z-score -0.4. Against B4GALT1 (GeneID 2683), the entry reads viability hit class no change; caspase hit class no change; viability robust z-score 0.22; caspase robust z-score 0.35. ZNF765 (GeneID 91661) showed viability hit class no change; caspase hit class no change; viability robust z-score -0.36; caspase robust z-score 0.44.

Against QDPR (GeneID 5860), the entry reads viability hit class no change; caspase hit class no change; viability robust z-score 0.28; caspase robust z-score -0.81. After knock-down of MAST4 (GeneID 375449), the screen gave viability hit class no change; caspase hit class no change; viability robust z-score 1.54; caspase robust z-score -0.66. For GRAMD2B (GeneID 65983), the entry reads viability hit class no change; caspase hit class no change; viability robust z-score 0.13; caspase robust z-score -0.45. Silencing of BTBD10 (GeneID 84280) gave: viability hit class no change; caspase hit class no change; viability robust z-score -1.35; caspase robust z-score 0.46. Depletion of CDK6 (GeneID 1021) gave: viability hit class no change; caspase hit class no change; viability robust z-score -0.33; caspase robust z-score -0.84. After knock-down of CMBL (GeneID 134147) the results were viability hit class no change; caspase hit class no change; viability robust z-score -0.39; caspase robust z-score -0.3.

Depletion of SORCS2 (GeneID 57537) resulted in: viability hit class no change; caspase hit class no change; viability robust z-score 0.47; caspase robust z-score -1.25. CIDEA (GeneID 1149) scored viability hit class no change; caspase hit class no change; viability robust z-score 0.42; caspase robust z-score -0.48. After knock-down of DEFB4A (GeneID 1673), the record shows viability hit class no change; caspase hit class no change; viability robust z-score -1.38; caspase robust z-score 0.21.

Laid out differently: 2 of the entries above.
{"gene knocked down":"LRRC20 (GeneID 55222)","viability hit class":"no change","caspase hit class":"no change","viability robust z-score":-0.68,"caspase robust z-score":2.63}
{"gene knocked down":"LY6H (GeneID 4062)","viability hit class":"no change","caspase hit class":"no change","viability robust z-score":0.74,"caspase robust z-score":0.58}
